The data set has as its system wild-type and peptidase knockout T. cruzi epimastigotes and amastigotes. Description: LC-MS/MS analysis of intracellular AN15368 and AN14667 (uptake and conversion). It counts as cell-based, Trypanosoma cruzi. Here is the method: The cells were then pelleted and resuspended in 100 μL of PBS. The cell suspension was mixed with 200 μl of acetonitrile and centrifuged at 735 gfor 10 minutes at room temperature. After extraction, the supernatant was further diluted with methanol:water 30:70 (v/v) containing 0.4 nM internal standard (IS) AN14817 to a concentration within the calibration range. Each sample was diluted in triplicate to provide technical replicates and the diluted sample (10 μL) was injected for subsequent LC-MS/MS analysis.
LC-MS/MS analysis was performed on a Waters ACQUITY I-Class UPLC system coupled to a Xevo TQ-S triple quadrupole mass spectrometer. An ACQUITY UPLC BEH C18 column (130 Å, 1.7 μm, 2.1 mm x 50 mm) was used for chromatographic separation, and the column temperature was 40 °C. The mobile phase consisted of water (A) and methanol (B), both containing 0.1% (v/v) formic acid. The following gradient elution was performed at a flow rate of 0.4 mL/min: 0 – 0.5 min, 30% B; 0.5 – 3 min, 30 – 95% B; 3 – 4 min, 95% B; 4 – 4.1 min, 95 – 30% B; and 4.1 – 5 min, 30% B. The MS ionization was carried out in the positive electrospray ionization (ESI) mode with following conditions: capillary voltage = 1.50 kV; desolvation temperature = 500 °C; desolvation gas flow = 1000 L/h; and nebulizer gas pressure = 7.0 bar. […] Data were processed using TargetLynx v4.1 software (Waters).

“And” between values parts separate entries of the source, which are not always exact repeats. Identical values can stand only once.

For the compound `Cc1c(C(=O)N[C@H](C(=O)O)C(C)C)ccc2c1B(O)OC2` [AN14667], the “Intracellular level of compound (Fig 2.d)” value is, setting by setting: (Amastigotes, TcCBP KO) 0.1109 and 0.09984 and 0.1014; (Amastigotes, WT) 5.454 and 5.25 and 5.388; (Epimastigotes, TcCBP KO) 0.009784 and 0.009803 and 0.009218; (Epimastigotes, WT) 0.2824 and 0.2807 and 0.2809.

For `Cc1c(C(=O)N[C@H](C(=O)OCC2CCOCC2)C(C)C)ccc2c1B(O)OC2` [AN15368], the “Intracellular level of compound (Fig 2.d)” value by setting is: (Amastigotes, TcCBP KO) 1.4368 and 1.4432 and 1.3408; (Amastigotes, WT) 0.696 and 0.666 and 0.714; (Epimastigotes, TcCBP KO) 0.4189 and 0.3981 and 0.377; (Epimastigotes, WT) 0.1245 and 0.1244 and 0.1308.

The values above are taken from paper PMC9519446, “Discovery of an Orally Active Benzoxaborole Prodrug Effective in the Treatment of Chagas Disease in Non-human Primates” (Nature microbiology, 2022).
